This is one part of the list. Shown are side measurements of this screen, not its main read-out; they come without a call. Compounds called inactive in the main read-out are mostly missing here. The note in brackets gives the kind of curve behind each potency; many fits are weak.
Test: qHTS Assay for Lipid Storage Modulators in Drosophila S3 Cells;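 as to cell number change: cells counted by Cell Tracker Red CMTPX staining in the red channel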
Details: BODIPY lipid droplet fluorescence, 18-24 h; for cell number change: measured here: cell count max response, cells fed with added oleic acid
Summary of the method: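 Drosophila S3 cells loaded with oleic acid (400 uM, as added) and compounds at several concentrations; lipid droplets imaged by 488-nm laser-scanning cytometry, 500–530 nm intensity and object ratio to cell channel. Percent activity normalized to 20 uM Triacsin C.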

[1] = measured here: cell number channel AC50, cells fed with added oleic acid
[2] = measured here: lipid fluorescence (Fed channel) AC50, cells fed with added oleic acid

Row | Structure (SMILES) | cell number change | AC50 [1] | AC50 [2]
1 | COc1ccc(OC)c(NC(=O)NC2CCCc3ccccc32)c1 (stereo not given) | 5.3% | – | –
2 | CCOC(=O)N1CCN(C(c2ccc(F)cc2)c2sc3nc(C)nn3c2O)CC1 (stereo not given) | 41.8% | 29.1 µM [rising, single point] | 29.1 µM [rising, single point]
3 | Cc1ccc(NC(=S)NNC(=O)c2nn(C)c(C)c2Cl)cc1 | 16% | – | 29.1 µM [rising, single point]
4 | COc1ccc(N(C(=O)c2ccn[nH]2)C(C(=O)NC(C)(C)C)c2ccc(F)cc2)cc1 (stereo not given) | -16.5% | – | –
5 | COC(=O)CSc1nnc(-c2cccnc2)n1C | -15.5% | – | –
6 | Cc1ccc(N(C(=O)c2csnn2)C(C(=O)NC2CCCCC2)c2ccncc2)cc1 (stereo not given) | 2.56% | – | 5.17 µM [rising, single point]
7 | Cc1ccc(CNC(=O)C2CCCN2C(=O)NCc2ccccc2)cc1 (stereo not given) | 4.46% | 0.82 µM [rising, full curve] | 0.651 µM [rising, full curve]
8 | COc1ccc(/C=C2\CCn3c2nc2ccccc2c3=O)cc1OC | 20% | – | 29.1 µM [falling, single point]
9 | CCOc1cc(Br)cc(/C=N/NC(=O)c2cccnc2)c1O | – | – | 6.51 µM [rising, partial curve, poor fit]
10 | COc1ccc(C(C(=O)NC2CCCC2)N(CCO)C(=O)Cn2nnc(-c3ccc(C)o3)n2)cc1OC (stereo not given) | -28.9% | – | 14.1 µM [rising, single point]
11 | COc1ccc(C2NC(=O)CCC2[N+](=O)[O-])c(OC)c1 (stereo not given) | 32.3% | 0.82 µM [rising, full curve, poor fit] | 0.731 µM [rising, full curve]
12 | CC1=CC(C)(C)N(C(=O)CSc2nnc(C)s2)c2ccc(C)cc21 | -10.2% | – | 25.9 µM [falling, partial curve]
13 | CNC(=O)c1ccc(Oc2ccc(C(=O)NC)cc2)cc1 | -1.6% | – | 3.66 µM [rising, single point]
14 | COc1ccc(OC)c(CNS(=O)(=O)c2cc(-c3cc(C)no3)ccc2OC)c1 | -29.7% | – | 10.3 µM [falling, single point]
15 | CCOc1cc(C2C(C(=O)N3CCCCC3)=C(C)NC3=C2C(=O)CC(C)(C)C3)ccc1O (stereo not given) | -19.5% | 1.46 µM [falling, full curve, poor fit] | –
16 | CCCC(c1nnnn1CC1CCCO1)N1CCN(c2cc(Cl)ccc2C)CC1 (stereo not given) | -25.9% | 0.206 µM [falling, full curve, poor fit] | –
17 | Cc1occc(=O)c1O | 21.5% | – | 4.61 µM [falling, full curve]
18 | CCN1CCN(CCCNC(=O)c2ccc(/C=C3/Sc4ccccc4N(Cc4ccccc4F)C3=O)cc2)CC1 | -27.3% | – | 18.4 µM [falling, single point]
19 | Cc1csc(Sc2ccc([N+](=O)[O-])cc2C(=O)OCC(=O)NC2CCCC(C)C2C)n1 (stereo not given) | -23.6% | – | –
20 | CSc1nc(Sc2ccccc2Cl)c2ccccc2n1 | – | – | 0.651 µM [falling, single point]
21 | CC1CCN(C(=O)c2[nH]cnc2C(=O)NCC(=O)OC(C)(C)C)CC1 | 9.88% | – | 8.2 µM [rising, partial curve]

Some of these compounds in order of SMILES length, smallest number first:
Row | Structure (SMILES) | cell number change | AC50 [1] | AC50 [2]
17 | Cc1occc(=O)c1O | 21.5% | – | 4.61 µM [falling, full curve]
4 | COc1ccc(N(C(=O)c2ccn[nH]2)C(C(=O)NC(C)(C)C)c2ccc(F)cc2)cc1 (stereo not given) | -16.5% | – | –
10 | COc1ccc(C(C(=O)NC2CCCC2)N(CCO)C(=O)Cn2nnc(-c3ccc(C)o3)n2)cc1OC (stereo not given) | -28.9% | – | 14.1 µM [rising, single point]

Continuation:

Row | Structure (SMILES) | cell number change | AC50 [1] | AC50 [2]
22 | O=C1C=C(c2ccc(Cl)c(C(F)(F)F)c2)C[C@@H](c2ccc(F)cc2)C1 | -6.57% | – | 6.51 µM [falling, single point]
23 | CCN(C(=O)CCc1nnc2ccc(N3CCC4(CC3)OCCO4)nn12)c1ccccc1 | 11.3% | – | –
24 | O=S(=O)(c1ccc(NCc2ccccc2)cc1)N1CCOCC1 | 18.2% | – | 5.8 µM [rising, full curve, poor fit]
25 | CCc1nc(OCC(=O)c2ccccc2)c(C#N)c2c1COC(C)(C)C2 | – | 3.66 µM [rising, partial curve, poor fit] | 0.103 µM [rising, full curve, poor fit]
26 | CS/C(=C\[N+](=O)[O-])Nc1ccccc1 | -36.4% | 5.8 µM [falling, full curve] | 3.66 µM [falling, partial curve]
27 | CC(=O)Nc1ccc(N(CC(O)Cn2c3ccccc3c3ccccc32)S(=O)(=O)c2ccc(C)cc2)cc1 (stereo not given) | 0.176% | – | 4.11 µM [rising, single point]
28 | C/C=C/C(=O)OCC(=O)Nc1cccc(Br)c1 | -15.7% | – | –
29 | Cc1cccc(-c2nnc(SCC(=O)Nc3ncccn3)n2C)c1 | 10% | – | 2.06 µM [falling, partial curve]
30 | COc1cccc(NS(=O)(=O)c2ccc3c(c2)CCCN3C(C)=O)c1 | 2.76% | 1.3 µM [rising, full curve] | 6.51 µM [rising, partial curve]
31 | O=C(O)[C@H]1CCCC[C@H]1C(=O)Nc1ccc(S(=O)(=O)N2CCOCC2)cc1 | 19.2% | – | 6.51 µM [falling, single point]
32 | COc1ccc(CCOC(=O)CNC(=O)c2ccc(Cl)cc2Cl)cc1 | 5.2% | – | –
33 | Cc1[nH]n(-c2ccc([N+](=O)[O-])cc2)c(=O)c1C=NCCN1CCN(C(=O)c2ccc(F)cc2)CC1 | 11.1% | – | 1.64 µM [rising, partial curve, poor fit]
34 | CCCCn1nc(C(=O)Nc2nc3c(s2)CCCC3)c2ccccc2c1=O | – | 6.51 µM [rising, partial curve, poor fit] | –
35 | COC(=O)c1c(C)[nH]c(C(=O)C(C)OC(=O)C2CC(=O)N(CCc3ccccc3)C2)c1C (stereo not given) | -20% | – | 32.6 µM [falling, partial curve, poor fit]
36 | COCCN1CN=C(Nc2nc3ccccc3s2)NC1 | -20.2% | – | 6.51 µM [falling, partial curve, poor fit]
37 | CN1CCN(S(=O)(=O)c2cccc(C(=O)Oc3ccc(Br)cc3F)c2)CC1 | 38.7% | – | –
38 | CCS(=O)(=O)NCC(c1ccco1)N1CCN(c2ccccc2F)CC1 (stereo not given) | -6.58% | – | 10.3 µM [rising, partial curve]
39 | C=CCSc1cc(C)nc2c(-c3ccc(Cl)cc3)c(C)nn12 | -4.55% | – | –
40 | Clc1cccc(N/N=C(\Cc2nc3ccccc3[nH]2)c2ccccc2)c1 | -54.3% | 16.4 µM [falling, single point] | 16.4 µM [falling, single point]
41 | Cc1cccc(N(C(=O)c2snc(C(N)=O)c2N)C(C)C(=O)NCC2CCCO2)c1 (stereo not given) | 29.4% | 4.61 µM [rising, full curve, poor fit] | 8.2 µM [rising, single point]
42 | CN(C)C(/C=C/Nc1ccc([N+](=O)[O-])cc1)=C(C#N)C#N | 17.3% | – | 0.00461 µM [rising, full curve, poor fit]

Row | Structure (SMILES) | cell number change | AC50 [1] | AC50 [2]
43 | C=CCN1CCN(C(=O)CCc2ccccc2)CC1 | 8.24% | – | 5.17 µM [falling, single point]
44 | COc1ccc(S(=O)(=O)N2CCN(C3CCCC(C)C3)CC2)cc1 (stereo not given) | -3.17% | 0.411 µM [rising, partial curve, poor fit] | –
45 | COCCc1nnc(NC(=O)C(C)C)s1 | -47.3% | 29.1 µM [falling, single point] | 16.4 µM [falling, single point]
46 | O=C1c2ccccc2C(=O)N1CCCCSc1nnc2ccccn12 | -0.0698% | – | –
47 | N#CCC(=O)Nc1ccc(C(=O)OCC(=O)Nc2cccc(C(F)(F)F)c2)cc1 | -19.9% | – | –
48 | Cc1nn(-c2ccccc2)c(N2CCCC2)c1/C=N/NC(=O)C1CC1 | – | – | 20.6 µM [rising, single point]
49 | CC(C)(C)n1nc2c(c1NC(=O)c1cc([N+](=O)[O-])ccc1Cl)CS(=O)(=O)C2 | -11.4% | – | –
50 | O=c1c2cc(-c3ccccc3)sc2nc2n1CCC2 | -10.8% | – | –
51 | O=C(Oc1ccc(N2C(=O)C3C4CCC(C4)C3C2=O)cc1)c1ccco1 (stereo not given) | 3.24% | – | –
52 | COc1ccc(C2C(C(=O)N3CCOCC3)CCC(=O)N2c2ccc(OC)cc2)cc1 (stereo not given) | – | 4.61 µM [rising, single point] | 1.64 µM [rising, partial curve, poor fit]
53 | CCCCN(C)C(=O)CNC(=O)c1nn(-c2ccc(OC)cc2OC)c(=O)c2ccccc12 | 40.5% | 29.1 µM [rising, single point] | –
54 | COc1cc2c(cc1OC)CN(C(=O)/C=C/c1cc(OC)c(OC)c(OC)c1)CC2 | -36.3% | 3.66 µM [falling, full curve, poor fit] | 3.26 µM [falling, full curve]
55 | O=C(Cn1cnc(S(=O)(=O)N2CCCC2)c1)Nc1cccc(Br)c1 | 5.7% | – | 6.51 µM [rising, partial curve, poor fit]
56 | CCn1c(-c2cc(C3CC3)nc3ccccc23)n[nH]c1=S | 20% | – | 5.17 µM [rising, full curve]
57 | Cc1cc(NC(=O)c2ccc3c(c2)OCO3)ccc1NC(=O)c1ccccc1 | 1.35% | – | 4.11 µM [falling, full curve]
58 | O=C(O)c1ccccc1SSc1ccccc1C(=O)O | – | – | 0.58 µM [rising, single point]
59 | COc1ccc(NC(=O)COC(=O)c2c3c(nc4ccccc24)CCCC3)cc1Cl | 11% | – | –
60 | COc1ccc(COC(=O)c2n[nH]c3ccccc23)cc1F | -74.8% | 29.1 µM [falling, single point] | –
61 | COCCCNC(=O)CC(C)c1ccccc1 (stereo not given) | -64.4% | 18.4 µM [falling, single point] | 29.1 µM [falling, single point]
62 | COc1cccc(C(=O)NC2CCN(C(=O)N3c4ccccc4Sc4ccccc43)CC2)c1 | -42.5% | 23.1 µM [falling, single point] | 29.1 µM [falling, single point]

— PubChem BioAssay AID2685 (National Center for Advancing Translational Sciences (NCATS), 2010)
